PubChem BioAssay AID493014 (National Center for Advancing Translational Sciences (NCATS), 2011)
About 170 (0.05%) of roughly 340,000 compounds were called active. Inconclusive means that the source gave no clear call. Such entries were picked first, then a sample of the others. Calls come from the whole dose curve; as a rule, active = well fitted inhibition curve with a large enough effect in the signal ratio, with a control signal flat (not every such curve was filed as active); inconclusive = small, poorly fitted or top-dose-only effect, or effect the other way, or a change in a side signal; inactive = flat fitted curve, though single readings scatter; the % refers to the signal ratio. Where the call is inconclusive, the potency comes from a doubtful curve fit.

assay: qHTS Assay to Find Inhibitors of Chronic Active B-Cell Receptor Signaling; conditions: ABC-DLBCL IkBa-CBG/CBR reporter, luminescence ratio (green luciferase fused to IkBa over red control in TMD8 lymphoma cells), 4 h; activity change, negative = inhibition: at 46.1 µM (top of the series);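 for activity change, negative = inhibition: plate controls were basal doxycycline-induced cells for no effect and cells given 10 µM MG132 for full effect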
Method in brief: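 Compounds up to 46 uM were incubated four hours with TMD8 cells whose green CBG68 luciferase is fused to IkappaBalpha; red CBR luminescence normalised the signal, and concentration-effect curves were fitted to fusion, red and ratio data.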
Potency is the fitted concentration of half-maximal effect.

SMILES | activity change, negative = inhibition | Potency
Cc1ccc(C)c(N2CCN(C(=O)c3ccc4c(c3)c(C)c(C)n4C)CC2)c1 | inconclusive: 1.57% | 
Cn1nccc1NC(=O)NC(=O)c1c(Cl)cccc1Cl | inconclusive: 12.9% | 
COc1ccc2sc(NC(=O)c3ccco3)nc2c1 |  | inconclusive: 31.6 µM [rising, single point]
O=C(O)c1cc2c(s1)-c1ccccc1OC2 | inconclusive: -1.03% | 
COc1ccc(-n2nnnc2CNC(=O)c2ccc(S(=O)(=O)N3CCOCC3)cc2)cc1 | inconclusive: -1.41% | 
CCc1ccc(NC(=O)C(CC)c2ccccc2)cc1 (stereo not given) | inactive | 
CC(C)(C)c1ccc(OCC(O)CSc2ncn[nH]2)cc1 (stereo not given) |  | inconclusive: 23.1 µM [falling, single point]
Cc1ccc(S(=O)(=O)c2nc(S(C)(=O)=O)sc2N2CCN(C)CC2)cc1 | inactive | 
O=C(Nc1ccc(Cl)c(S(=O)(=O)N2CCOCC2)c1)c1ccc(OCC2CCCO2)cc1 (stereo not given) | inconclusive: -0.121% | 
Cc1cc(C)nc(SCc2csc(-c3ccccc3)n2)n1 | inconclusive: -8.08% | 
Cc1ccc(C(=O)Nc2nc3ccccc3[nH]2)cc1 |  | inconclusive: 35.5 µM [falling, partial curve, poor fit]
CCOC(=O)c1ccc(-n2c(CCC(=O)O)ccc2-c2cccs2)cc1 | inactive | 
CCNC(=S)N(Cc1ccco1)Cc1cc2cc3c(cc2[nH]c1=O)OCCO3 | inactive | 
O=C(CSc1ccc2ccccc2c1)Nc1ncccn1 |  | inconclusive: 23.1 µM [rising, single point]
O=C(NCc1cccnc1)Nc1cc(Cl)cc(Cl)c1 | inconclusive: 3.78% | 
CSc1nc2cc3c(cc2n1C(=O)c1ccc(C)cc1)OCCO3 | inconclusive: -19.1% | 
COc1cccc(-n2c(SCC(=O)N3CCc4ccccc43)nnc2-c2c[nH]c3ccccc23)c1 | inactive | 
Cc1ccccc1-c1nc(S(=O)(=O)c2ccc(Br)cc2)c(NCc2cccnc2)o1 |  | inconclusive: 6.51 µM [falling, single point]
O=C(CN1CCN(S(=O)(=O)c2ccc(Br)cc2)CC1)Nc1ccc(F)cc1F |  | inconclusive: 14.6 µM [falling, partial curve]
CCCOc1ccc(/C=C/C(=O)OCC(=O)N(C)c2c(N)n(Cc3ccccc3)c(=O)[nH]c2=O)cc1OCC | inactive | 
O=c1/c(=C\c2ccc3c(c2)OCO3)sc2n1CCCN=2 |  | inconclusive: 25.1 µM [falling, single point]
Cc1ccc(S(=O)(=O)CCc2nc3ccccc3s2)cc1 | inconclusive: 29% | 
CCN1C(=O)[C@@H]2[C@@H](c3ccc(-c4ccc(Cl)c(Cl)c4)c(OC)c3)N3CCC[C@@]3(C(=O)OC)[C@@H]2C1=O | inconclusive: -0.129% | 
CCCCCC(=O)c1c(C)[nH]c(C(=O)OCC)c1C | inconclusive: -13.4% | 
COc1ccc(-c2ccc(S(=O)(=O)n3nc(OC(=O)c4cccs4)cc3N)cc2)cc1 |  | inconclusive: 2.51 µM [falling, full curve, poor fit]

SMILES | activity change, negative = inhibition | Potency
CCc1n[nH]c(=S)n1/N=C/c1c(O)ccc2ccccc12 | inactive | 
Cn1c(=O)n(Cc2ccccc2)c(=O)c2c1nc1n2CCCN1CCc1ccccc1 | inconclusive: -13.7% | 
C=C(C)C1(O)OC(=O)C=C1OC (stereo not given) |  | inconclusive: 7.08 µM [falling, partial curve, poor fit]
Cn1c(-c2ccc(-c3ccccc3)cc2)c[nH]c1=S | inconclusive: -5.22% | 
Cc1cc(C)nc(SCC(=O)Nc2ncc(Cc3cccc(Cl)c3)s2)n1 | inactive | 
CCN(CC)S(=O)(=O)c1cc(NC(=O)Cn2ncc(Cl)c(Cl)c2=O)ccc1C |  | inconclusive: 15.8 µM [rising, partial curve, poor fit]
CCCn1c(=O)c(C(=O)NCc2ccccc2Cl)c(O)c2ccccc21 | inconclusive: 8.11% | 
S=C(Nc1ccc(Oc2ccc(NC(=S)NC3CCCCC3)cc2)cc1)NC1CCCCC1 | inactive | 
CC(CCc1ccccc1)NC(=O)COC(=O)c1cc(NS(=O)(=O)c2ccc(Cl)c([N+](=O)[O-])c2)ccc1O (stereo not given) |  | inconclusive: 29.1 µM [falling, single point]
CCOC(=O)C1CCN(S(=O)(=O)c2ccc(Cl)cc2OC)CC1 | inconclusive: -18.4% | 
CCn1c(C)cc(C(=O)COC(=O)c2cccnc2SC)c1C |  | inconclusive: 29.1 µM [falling, single point]
CCCCOc1ccc(C(=O)NCC(=O)N2CC(C)CC(C)C2)cc1 (stereo not given) | inactive | 
CSc1ccc(S(=O)(=O)NCc2ccc(C)cc2)cc1 |  | inconclusive: 23.1 µM [rising, partial curve, poor fit]
O=C(O)c1ccc(NCc2nc3ccccc3n2Cc2ccccc2F)cc1 |  | inconclusive: 31.6 µM [rising, partial curve]
Cc1ccc(NC(=O)c2cccc3cccnc23)cc1 | inconclusive: -8.44% | 
COc1cc(C(=O)CSc2nncn2C)cc(OC)c1OC | inconclusive: -24.8% | 
Cc1nc2n(n1)C(c1ccccc1)C1=C(CC(c3ccco3)CC1=O)N2 (stereo not given) | inconclusive: 0.479% | 
CCOc1ccc(OCC)c(NC(=O)CSc2nnc(-c3cccnc3)o2)c1 |  | inconclusive: 6.51 µM [rising, single point]
N#C/C(=C\c1ccc2c(c1)OCCO2)C(=O)NC1CCCCC1 | inconclusive: -24.4% | 
Cc1ccc(-c2cc(=O)c3cc(F)ccc3[nH]2)cc1 | inactive | 
COC(=O)c1sc(NC(=O)COc2ccccc2C)nc1C |  | inconclusive: 12.6 µM [falling, single point]
CCOc1ccc(S(=O)(=O)N(CC(=O)Nc2cc(C)on2)Cc2ccccc2Cl)cc1 | inconclusive: -0.188% | 
CN1CCN(C(=O)c2ccc(Oc3ccc([N+](=O)[O-])cc3)cc2)CC1 | inconclusive: -0.143% | 
O=C(c1ccco1)N1CCCC(Nc2ccc3c(c2)OCCO3)C1 (stereo not given) | inconclusive: -11.4% | 
CCOc1ccccc1Nc1nnc(SCC(=O)Nc2nc(-c3ccc(OC)cc3)cs2)s1 | inconclusive: -16.8% | 

Among those listed so far, 4 contain a furan ring, fused or not:
SMILES | activity change, negative = inhibition | Potency
COc1ccc2sc(NC(=O)c3ccco3)nc2c1 |  | inconclusive: 31.6 µM [rising, single point]
CCNC(=S)N(Cc1ccco1)Cc1cc2cc3c(cc2[nH]c1=O)OCCO3 | inactive | 
Cc1nc2n(n1)C(c1ccccc1)C1=C(CC(c3ccco3)CC1=O)N2 (stereo not given) | inconclusive: 0.479% | 
O=C(c1ccco1)N1CCCC(Nc2ccc3c(c2)OCCO3)C1 (stereo not given) | inconclusive: -11.4% | 
